Experimental data reported in article PMC7282624.

By UniProt entry, the sequences of proteins in these tests, tags left out.
UniProt P14635: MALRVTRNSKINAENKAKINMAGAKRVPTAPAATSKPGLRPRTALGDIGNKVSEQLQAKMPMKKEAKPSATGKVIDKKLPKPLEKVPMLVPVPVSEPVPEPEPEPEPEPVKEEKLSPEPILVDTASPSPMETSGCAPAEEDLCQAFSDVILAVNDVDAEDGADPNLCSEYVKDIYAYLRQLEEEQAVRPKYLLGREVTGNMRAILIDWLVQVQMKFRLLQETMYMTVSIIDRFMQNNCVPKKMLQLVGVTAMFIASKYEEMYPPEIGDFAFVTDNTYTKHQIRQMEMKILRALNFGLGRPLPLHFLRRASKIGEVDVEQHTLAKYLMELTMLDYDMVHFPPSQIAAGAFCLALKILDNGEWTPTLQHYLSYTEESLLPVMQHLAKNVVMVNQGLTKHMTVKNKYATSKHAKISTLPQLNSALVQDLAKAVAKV

Target: FLAG-tagged mouse ULK1 (mULK1-3FLAG) (mouse) (UniProt Q6PB82)
Assay: co-IP; anti-FLAG antibody on Protein G Dynabeads, 4 °C 12 hours, M-PER lysates of HEK-293T cells stably expressing the FLAG-tagged bait; cells asynchronous or synchronized by single-thymidine with or without nocodazole (some treated with RO-3306); western blot

binding: binds
Substance: cyclin B1, endogenous (from UniProt P14635 1-433)

No constants are given. Whether binding was seen depends on the method and setting. In cells and extracts the contact can be indirect. Binding calls can cover weak binding; strength is not graded here.
